Laboratory results: PubChem BioAssay AID1259424 (University of Nebraska Medical Center, 2018)

Aim: 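Find knockdowns that reproduce the expression shifts seen after KSR1 loss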 (primary screen)
System: human HCT116 colon cancer cells
Reagents: siRNA pool against human genes, 50 nM
Measurement: 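Six signature mRNAs by branched-DNA multiplex assay, scaled to two housekeeping genes and non-targeting median, log2; matched to mean KSR1 knockdown profile by Pearson correlation and euclidean distance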
Scale: mean correlation with KSR1 profile and KSR1 correlation: higher = expression change more like KSR1 knockdown; mean distance from KSR1 profile: higher = expression change less like KSR1 knockdown
In all, the deposit lists about 14,000 reagents; this is an unselected part. 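Higher correlation or smaller distance means closer resemblance to KSR1 loss; control wells, including KSR1 knockdowns, recur on many plates.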 A reagent listed more than once was tested more than once; the source does not tell the runs apart. Further read-outs or replicates are left out here. Not given: the time to read-out.

no.	gene	mean correlation with KSR1 profile	mean distance from KSR1 profile	KSR1 correlation, replicate 1	KSR1 correlation, replicate 2
1	DBF4B	-0.0227	3.4	0.055	-0.33
2	A4GALT	0.446	3.17	0.222	0.292
3	WDR41	-0.586	1.84	-0.276	-0.734
4	KCNV2	-0.201	1.29	0.182	-0.209
5	BRSK2	0.705	0.832	0.793	0.778
6	BMAL1	-0.742	1.25	0.335	0.158
7	MBTD1	-0.206	2.32	-0.263	-0.371
8	PHC3	0.477	3.16	0.533	0.083
9	SIRT2	-0.237	2.42	-0.4	-0.185
10	VGLL1	-0.595	3.19	-0.595	-0.295
11	FOXA1	0.516	2.19	0.49	0.465
12	OR1G1	0.108	2.43	0.274	0.135
13	CCDC93	-0.324	4.08	-0.343	-0.288
14	OTOF	-0.46	2.64	-0.64	-0.49
15	SLC4A1	-0.0755	1.7	-0.241	-0.0614
16	DOLPP1	-0.163	2.64	-0.0682	-0.31
17	MOXD1	-0.281	1.49	0.0231	-0.357
18	SLC27A6	0.199	1.92	-0.18	0.089
19	GRIP2	0.026	2.41	-0.227	-0.00649
20	ANXA13	0.126	1.66	0.453	-0.127
21	POLR2M	0.0581	3.44	0.0442	0.0775
22	WASHC5	-0.35	1.83	-0.335	-0.669
23	PLCG1	0.0995	1.08	0.317	0.036
24	NKX2-1	0.0941	1.89	0.263	0.507
25	SLC35A3	-0.0702	1.19	0.0384	-0.38
26	DUSP7	0.208	1.94	0.221	0.354
27	SRI	0.169	3.23	0.291	0.0247
28	CNDP2	-0.498	2.81	-0.674	-0.556
29	BTBD2	-0.75	2.04	-0.762	-0.685
30	LDOC1	0.0652	1.59	0.158	-0.0621
31	LAMA1	0.311	1.22	0.529	0.142
32	ARL8B	0.648	0.977	0.73	0.373
33	ZNF90	0.229	2.14	0.316	-0.0257

An excerpt taken from the entries so far, for reference:
no.	gene	mean correlation with KSR1 profile	mean distance from KSR1 profile	KSR1 correlation, replicate 1	KSR1 correlation, replicate 2
19	GRIP2	0.026	2.41	-0.227	-0.00649
20	ANXA13	0.126	1.66	0.453	-0.127
21	POLR2M	0.0581	3.44	0.0442	0.0775

The listing continues:
no.	gene	mean correlation with KSR1 profile	mean distance from KSR1 profile	KSR1 correlation, replicate 1	KSR1 correlation, replicate 2
34	ARHGAP24	0.482	1.9	0.349	0.451
35	PRKAA2	0.135	2.15	0.402	0.38
36	GCSH	-0.157	2.07	-0.0021	-0.413
37	MXI1	0.246	1.69	0.461	0.178
38	TRAPPC6A	-0.46	2.4	-0.0914	-0.661
39	UBN1	-0.612	1.8	-0.602	-0.411
40	ARL6IP4	0.252	1.17	0.194	0.0394
41	ERBB3	0.28	3.7	0.247	0.0982
42	LTA	0.268	3.09	0.0131	0.0346
43	CYB5R4	-0.306	4.03	-0.382	-0.287
44	PRDM16	0.505	1.03	0.651	0.529
45	SLC16A8	-0.3	2.71	-0.191	-0.279
46	GRK6	0.547	3.06	0.657	0.609
47	GRK6	0.512	1.81	0.542	0.638
48	TMEM126B	0.16	2.14	-0.0455	-0.0144
49	IL17B	-0.514	1.87	-0.576	-0.606
50	POP1	-0.43	3.36	-0.299	-0.412
51	ATP8A2	-0.0146	1.72	0.022	0.0157
52	ALPI	-0.489	2.78	-0.582	-0.452
53	TMEM184B	0.609	1.05	0.819	0.582
54	GCC2	0.0578	1.62	-0.0669	0.634
55	MYOC	-0.0137	2.69	-0.138	-0.235
56	DPAGT1	0.305	2.44	0.314	0.206
57	CRYBB1	-0.161	3.55	-0.334	-0.141
58	PRODH	0.821	0.681	0.769	0.729
59	HMGCL	0.124	2.06	0.131	0.035
60	RALA	0.339	1.43	0.245	0.405
61	ANAPC10	-0.642	1.48	-0.366	-0.804
62	CNNM4	0.0122	2.22	-0.0366	0.127
63	GPR137B	-0.409	2.81	-0.254	-0.542
